# From PubChem BioAssay AID1347076 (National Center for Advancing Translational Sciences (NCATS), 2019)
# The campaign covered roughly 400,000 compounds. About 13,000 (3.2%) were called active. This list was built around the results that the source calls inconclusive (neither active nor inactive); the mix of calls is not that of the screen. Calls follow the shape of the dose curve; as a rule, active = well fitted cell-killing curve with a large enough effect; inconclusive = small, poorly fitted or top-dose-only effect, or effect the other way; inactive = flat fitted curve, though single readings scatter. A potency beside an inconclusive call is a rough fit, not a confirmed value.
# Assay: qHTS assay for MDR1-selective chemotherapeutics: Primary screen using the drug-selected MDR subline cells KB-V1; also: nearly all actives have a fitted effect of over 60% in size
# Settings: KB-V1 MDR cells viability, CellTiter-Glo, 72 h; activity change, negative = cytotoxicity: at 46.1 µM (top of the series)
# Procedure, shortened: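 Cytotoxicity via CellTiter-Glo luminescence after 72 h compound exposure at 37 degrees C. Cells: drug-selected KB-V1 line, DMEM phenol-red free plus 10% FBS. Compounds tested at multiple concentrations; normalized data fitted to concentration-effect curves.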
# % is scaled to controls: 0 for no effect and ±100 for the full control effect; potency is read from the fitted curve at half-maximal effect.
SMILES,Potency,"activity change, negative = cytotoxicity"
Oc1c(C=C2N=c3ccccc3=N2)sc(=S)n1-c1ccc(F)cc1,"inconclusive: 16.4 µM [cytotoxic, single point]",–
COc1ccc(CCNC(=O)C(=O)NCC2CCNCC2)cc1OC,"inconclusive: 29.1 µM [rising, single point]",–
CC(C)CC(=O)Nc1nc2c(s1)CC(C(C)(C)C)CC2 (stereo unspecified),–,inactive: -9.65%
Cc1nnc(C)c2c(C)n(-c3ccc4ncccc4c3)c(C)c12,"inconclusive: 13 µM [rising, partial curve, poor fit]",–
Oc1[nH]c2ccccc2c1C=Nc1ccc2c(c1)OCCO2,active: 16.4 µM,–
COc1ccc(N2CCN(C(=O)c3ccc(CNS(=O)(=O)c4ccc(C)cc4)cc3)CC2)cc1,–,inactive: 0%
CC1Cc2ccccc2N1C(=O)c1ccc2snnc2c1 (stereo unspecified),–,inactive: 0%
O=C(CCc1nc2ccccc2s1)Nc1cccnc1,–,inactive: 3.98%
COc1ccc(C(=O)NCC(c2ccco2)N2CCc3ccccc32)c(OC)c1 (stereo unspecified),"inconclusive: 6.51 µM [cytotoxic, partial curve]",–
COc1ccccc1CNC(=O)CCCNC(=O)c1ccc(Cl)cc1,–,inactive: -13.1%
Cc1cc(C)cc(N(CCC#N)C(=O)COC(=O)c2ccc(OCc3c(C)noc3C)cc2)c1,"inconclusive: 8.2 µM [cytotoxic, partial curve]",–
CCn1c(=O)cc(OCC(=O)N(C)C2CCCCC2)c2ccccc21,"inconclusive: 3.98 µM [cytotoxic, full curve]",–
O=c1cnc2ccccc2n1Cc1ccccc1,"inconclusive: 2.91 µM [rising, partial curve, poor fit]",–
Cc1sc2ncn(CC(=O)Nc3ccc(F)cc3F)c(=O)c2c1S(=O)(=O)N1CCC(C)CC1,–,inactive: -8.5%
Cc1ccc(N=Nc2c(N)[nH]n3c(=O)cc(C)nc23)cc1,active: 23.1 µM,–
CCC(C)NC(=S)NNC(=O)c1ccncc1 (stereo unspecified),"inconclusive: 20.6 µM [cytotoxic, single point]",–
c1ccc2c(c1)CCN(c1nc3ccccc3n3cnnc13)C2,–,inactive: 0%
CCOc1ccc2oc(C(=O)N(CC)CC(=O)Nc3c(F)cccc3F)c(C)c2c1,"inconclusive: 7.31 µM [cytotoxic, partial curve]",–
C=CCn1c(NCCc2ccccc2)nc2c1c(=O)n(C)c(=O)n2C,active: 9.2 µM,–
CCCN1C(=O)/C(=C\c2ccncc2)SC1=Nc1ccccc1,"inconclusive: 29.1 µM [cytotoxic, single point]",–
CCOc1cc(C(=O)N(C)CC(=O)Nc2cccc3ccccc23)ccc1OC,–,inactive: 27.9%
O=S(=O)(c1ccc2nc(COc3ccccc3)[nH]c2c1)N1CCOCC1,"inconclusive: 29.1 µM [cytotoxic, single point]",–
Cc1ccccc1SCc1noc(C(=O)NC(C)C)c1C(=O)O,–,inactive: 22%

SMILES,Potency,"activity change, negative = cytotoxicity"
CS/C(N)=N/C(=S)Nc1cccc(Cl)c1,"inconclusive: 32.6 µM [cytotoxic, single point]",–
COCCCNCCCCOc1ccc(Br)cc1Cl,"inconclusive: 14.6 µM [cytotoxic, partial curve]",–
COc1cccc(N2CCN(S(=O)(=O)c3cn(C)c(C)n3)CC2)c1,"inconclusive: 5.17 µM [rising, full curve]",–
O=C1/C(=C/c2ccncc2)CCC/C1=C\c1ccncc1,"inconclusive: 1.46 µM [cytotoxic, full curve, poor fit]",–
Cc1cc(C(=O)N2CCCC(CO)(Cc3ccc(F)cc3)C2)c(C)o1 (stereo unspecified),"inconclusive: 11.6 µM [cytotoxic, partial curve]",–
COc1cc(CN2CC(=O)N(c3ccc(C)c(C)c3)C2=S)cc(OC)c1OC,active: 16.4 µM,–
COC(=O)C[C@H]1C[C@H]2c3cc(NC(=O)CC4CC4)ccc3O[C@H]2[C@H](CO)O1,"inconclusive: 29.1 µM [rising, single point]",–
CCn1c(C)nc2cc(C(=O)NNS(=O)(=O)c3c(C)c(C)cc(C)c3C)ccc21,"inconclusive: 29.1 µM [rising, single point]",–
CN(Cc1c(F)cccc1Cl)c1nnnn1-c1ccccc1,active: 20.6 µM,–
Cc1ccc2nc3c(c(N)c2c1)CCN3c1ccccc1,"inconclusive: 29.1 µM [cytotoxic, single point]",–
CCCCC[C@@H](C)N1C[C@@H](COCc2ccccc2)Oc2cc(N3CCC[C@@H]3CO)ccc2S1(=O)=O,active: 16.4 µM,–
O=C(O)CCc1nn2c3ccccc3n(Cc3ccccc3)c2nc1=O,"inconclusive: 23.1 µM [rising, single point]",–
O=S(=O)(NCC1CCCO1)c1ccc(Cl)c2ccccc12 (stereo unspecified),"inconclusive: 29.1 µM [cytotoxic, single point]",–
Cc1ccc(Oc2ccc(NC(=O)c3ccco3)cc2)cc1,"inconclusive: 32.6 µM [cytotoxic, partial curve, poor fit]",–
Cc1ccccc1-n1c(SCC(=O)N2CCN(c3ccccc3)CC2)nnc1-c1ccncc1,active: 3.66 µM,–
CCOc1ccc(OCCC(=O)N(CC)CC(=O)Nc2c(F)cccc2F)cc1,"inconclusive: 18.4 µM [cytotoxic, partial curve, poor fit]",–
CC(=O)NCCNc1nc2c(S(=O)(=O)c3ccc(C)c(C)c3)nnn2c2ccc(Cl)cc12,"inconclusive: 29.1 µM [rising, single point]",–
CCN(CC)C(=O)C1CCN(S(=O)(=O)c2ccc3c(c2)CCCN3C(=O)C2CCC2)CC1,"inconclusive: 2.91 µM [cytotoxic, full curve]",–
O=[N+]([O-])c1ccc(S(=O)(=O)c2cccc(C(F)(F)F)c2)nc1,"inconclusive: 29.1 µM [cytotoxic, single point]",–
CCOC(=O)c1cnc(-n2nc(C)cc2C)nc1NNc1nc(-c2ccccc2)cc(-c2ccccc2)n1,"inconclusive: 3.26 µM [cytotoxic, full curve]",–
CC1CC(C)CN(CC(=O)Nc2cc(S(=O)(=O)N3CCOCC3)ccc2N2CCCC2)C1 (stereo unspecified),–,inactive: 29.7%
O=C(NCc1csc(-c2cccs2)n1)C1CCCCC1,"inconclusive: 0.13 µM [cytotoxic, full curve]",–
CCOc1ccccc1C1NC(c2ccc3c(c2)OCO3)=CC(c2ccccc2O)N1 (stereo unspecified),–,inactive: -3.39%

# Some values from the entries so far.
# Cc1ccccc1-n1c(SCC(=O)N2CCN(c3ccccc3)CC2)nnc1-c1ccncc1 | Potency: active: 3.66 µM
# COC(=O)C[C@H]1C[C@H]2c3cc(NC(=O)CC4CC4)ccc3O[C@H]2[C@H](CO)O1 | Potency: inconclusive: 29.1 µM [rising, single point]
